According to paper PMC11352367 (Cells, 2024):
These are yes or no findings as the source states them, for the method shown. Binding calls can cover weak binding; strength is not graded here. Where a sequence is shown, tags or fusion partners need not be part of it.

Tests used:
[1] = target: Rabbit skeletal muscle-derived α-actinin (rabbit); assay: negative-stain transmission electron microscopy; 1 μM α-actinin with 1 μM SYNPO2La or SYNPO2Lb incubated 3 h at room temperature, negatively stained with 3% uranyl acetate; both purified
[2] = target: Rabbit skeletal muscle-derived α-actinin (rabbit); assay: high-speed atomic force microscopy; actin filaments held on a positively charged lipid bilayer (DPPC:DPTAP 7:3) on mica; α-actinin (140 nM) and/or SYNPO2La (120 or 200 nM) injected into the observation buffer, room temperature; both purified
[3] = target: Rabbit skeletal muscle-derived α-actinin (rabbit); assay: high-speed atomic force microscopy; α-actinin (50 nM) adsorbed on bare mica, SYNPO2La (28 nM) added to the observation buffer (5 mM Tris-HCl pH 8.0, 0.2 mM CaCl2, 0.5 mM DTT, 100 mM KCl, 2 mM MgCl2), room temperature; both purified

B1: His-tagged human SYNPO2La (synaptopodin 2-like protein, long form) (protein, UniProt Q9H987 1-977)
chain: MGAEEEVLVTLSGGAPWGFRLHGGAEQRKPLQVSKIRRRSQAGRAGLRERDQLLAINGVSCTNLSHASAMSLIDASGNQLVLTVQRLADEGPVQSPSPHELQVLSPLSPLSPEPPGAPVPQPLQPGSLRSPPDSEAYYGETDSDADGPATQEKPRRPRRRGPTRPTPPGAPPDEVYLSDSPAEPAPTIPGPPSQGDSRVSSPSWEDGAALQPPPAEALLLPHGPLRPGPHLIPMVGPVPHPVAEDLTTTYTQKAKQAKLQRAESLQEKSIKEAKTKCRTIASLLTAAPNPHSKGVLMFKKRRQRAKKYTLVSFGAAAGTGAEEEDGVPPTSESELDEEAFSDARSLTNQSDWDSPYLDMELARAGSRASEGQGSGLGGQLSEVSGRGVQLFEQQRQRADSSTQELARVEPAAMLNGEGLQSPPRAQSAPPEAAVLPPSPLPAPVASPRPFQPGGGAPTPAPSIFNRSARPFTPGLQGQRPTTTSVIFRPLAPKRANDSLGGLSPAPPPFLSSQGPTPLPSFTSGVPSHAPVSGSPSTPRSSGPVTATSSLYIPAPSRPVTPGGAPEPPAPPSAAAMTSTASIFLSAPLRPSARPEAPAPGPGAPEPPSAREQRISVPAARTGILQEARRRGTRKQMFRPGKEETKNSPNPELLSLVQNLDEKPRAGGAESGPEEDALSLGAEACNFMQPVGARSYKTLPHVTPKTPPPMAPKTPPPMTPKTPPPVAPKPPSRGLLDGLVNGAASSAGIPEPPRLQGRGGELFAKRQSRADRYVVEGTPGPGLGPRPRSPSPTPSLPPSWKYSPNIRAPPPIAYNPLLSPFFPQAARTLPKAQSQGPRATPKQGIKALDFMRHQPYQLKTAMFCFDEVPPTPGPIASGSPKTARVQEIRRFSTPAPQPTAEPLAPTVLAPRAATTLDEPIWRTELASAPVPSPAPPPEAPRGLGASPSSCGFQVARPRFSATRTGLQAHVWRPGAGHQ
binding [1]: binds | binding [2]: binds | binding [3]: binds

B2: His-tagged human SYNPO2Lb (synaptopodin 2-like protein, short form) (protein, UniProt Q9H987-2 1-753)
chain: METFEPISQEPLSQASYDKAPDPVPELQDSFYAELQRAESLQEKSIKEAKTKCRTIASLLTAAPNPHSKGVLMFKKRRQRAKKYTLVSFGAAAGTGAEEEDGVPPTSESELDEEAFSDARSLTNQSDWDSPYLDMELARAGSRASEGQGSGLGGQLSEVSGRGVQLFEQQRQRADSSTQELARVEPAAMLNGEGLQSPPRAQSAPPEAAVLPPSPLPAPVASPRPFQPGGGAPTPAPSIFNRSARPFTPGLQGQRPTTTSVIFRPLAPKRANDSLGGLSPAPPPFLSSQGPTPLPSFTSGVPSHAPVSGSPSTPRSSGPVTATSSLYIPAPSRPVTPGGAPEPPAPPSAAAMTSTASIFLSAPLRPSARPEAPAPGPGAPEPPSAREQRISVPAARTGILQEARRRGTRKQMFRPGKEETKNSPNPELLSLVQNLDEKPRAGGAESGPEEDALSLGAEACNFMQPVGARSYKTLPHVTPKTPPPMAPKTPPPMTPKTPPPVAPKPPSRGLLDGLVNGAASSAGIPEPPRLQGRGGELFAKRQSRADRYVVEGTPGPGLGPRPRSPSPTPSLPPSWKYSPNIRAPPPIAYNPLLSPFFPQAARTLPKAQSQGPRATPKQGIKALDFMRHQPYQLKTAMFCFDEVPPTPGPIASGSPKTARVQEIRRFSTPAPQPTAEPLAPTVLAPRAATTLDEPIWRTELASAPVPSPAPPPEAPRGLGASPSSCGFQVARPRFSATRTGLQAHVWRPGAGHQ
binding [1]: binds
